US6114537A, “Process for scavenging thiols” (Apotex Inc., priority 1997, dated 2000)
At least one compound was matched to its structure with a doubt left.

Biological target: T1, Papain (Carica papaya, UniProt P00784)
T1 sequence (P00784 134-345): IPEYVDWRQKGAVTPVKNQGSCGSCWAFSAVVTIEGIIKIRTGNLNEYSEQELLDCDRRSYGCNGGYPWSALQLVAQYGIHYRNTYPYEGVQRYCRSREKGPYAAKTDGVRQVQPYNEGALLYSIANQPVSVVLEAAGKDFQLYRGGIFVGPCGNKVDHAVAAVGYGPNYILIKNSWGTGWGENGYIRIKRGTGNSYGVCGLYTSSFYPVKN
Experiment: Crystal structure determination of T11AA/papain complex
Assay type: binding
Conditions: catalytic Cys25

COc1nsc(NC(=O)N[C@@H](CC(C)C)C(=O)NCCC(C)C)n1 [Example T11AA]
covalent reaction with papain (electron density): reacted covalently with papain
